Results are given in words; binding and its absence hold for the method and conditions named. Binding seen in cells or lysates may run through a third protein. Some entries that bind do so weakly or less than the wild type.
What was measured:
[1] = biological target: OCT4 protein, endogenous in CGR8 mouse ES cells (mouse) (UniProt P20263); assay: summary of the co-immunoprecipitation in CGR8 cells
[2] = biological target: OCT4 protein, endogenous in CGR8 mouse ES cells (mouse) (UniProt P20263); assay: endogenous co-immunoprecipitation from CGR8 cell lysate with OCT4 antibody, Western blot with HMGB2 antibody

Chains of the proteins cited; added tags and fusions are not shown.
UniProt P20263: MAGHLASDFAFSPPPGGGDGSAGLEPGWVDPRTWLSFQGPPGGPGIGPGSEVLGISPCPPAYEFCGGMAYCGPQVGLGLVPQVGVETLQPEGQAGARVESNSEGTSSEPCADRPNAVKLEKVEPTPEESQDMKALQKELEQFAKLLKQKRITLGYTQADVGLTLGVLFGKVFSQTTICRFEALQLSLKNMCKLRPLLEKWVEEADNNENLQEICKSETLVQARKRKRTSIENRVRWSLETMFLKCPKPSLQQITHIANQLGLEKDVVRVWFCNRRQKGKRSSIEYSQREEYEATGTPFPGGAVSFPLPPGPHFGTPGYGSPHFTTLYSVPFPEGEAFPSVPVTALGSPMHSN

B1: HMGB2 (high mobility box 2) protein, endogenous in CGR8 mouse ES cells (protein, UniProt P30681 1-210, looked up)
chain: MGKGDPNKPRGKMSSYAFFVQTCREEHKKKHPDSSVNFAEFSKKCSERWKTMSAKEKSKFEDLAKSDKARYDREMKNYVPPKGDKKGKKKDPNAPKRPPSAFFLFCSENRPKIKIEHPGLSIGDTAKKLGEMWSEQSAKDKQPYEQKAAKLKEKYEKDIAAYRAKGKSEAGKKGPGRPTGSKKKNEPEDEEEEEEEEEEEDDEEEEEDEE
[1]
  binding: binds
[2]
  binding: binds

Reference: patent US20180320177A1, “COMPOSITIONS AND METHODS FOR THE TREATMENT OF LIVER FIBROSIS” (UNIVERSITY OF CONNECTICUT, priority 2015, published 2018)
